{"source": "ChEMBL document CHEMBL2150860", "about": "“Herbarone, a rearranged heptaketide derivative from the sea hare associated fungus Torula herbarum” (J Nat Prod, 2012)", "system": "A549", "assay": "Cytotoxicity against human A549 cells by MTT colorimetric method", "assay_type": "functional, cell-based", "data": [{"molecule": "COc1cccc2c1C(=O)c1c(O)c3c(c(O)c1C2=O)C[C@@](O)(C(=O)CO)C[C@@H]3O[C@H]1C[C@H](N)[C@H](O)[C@H](C)O1", "note": "[DOXORUBICIN]", "values": [{"measurement": "IC50", "value": 2.7, "unit": "µM"}]}]}
